{
  "sequences": {"note": "Amino acid sequences for entries named in this document (tags omitted). Residues count along the entry.", "UniProt Q16595, residues 42-210": "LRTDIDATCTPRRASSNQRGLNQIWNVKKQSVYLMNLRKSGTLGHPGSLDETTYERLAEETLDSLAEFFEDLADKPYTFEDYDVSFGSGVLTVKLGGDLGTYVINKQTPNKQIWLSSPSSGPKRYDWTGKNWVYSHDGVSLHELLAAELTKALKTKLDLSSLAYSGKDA"},
  "source": "paper PMC3027643",
  "target": "T1, mitochondrial aconitase (mACO) (human (endogenous in HeLa)) (UniProt Q99798)",
  "T1 sequence": "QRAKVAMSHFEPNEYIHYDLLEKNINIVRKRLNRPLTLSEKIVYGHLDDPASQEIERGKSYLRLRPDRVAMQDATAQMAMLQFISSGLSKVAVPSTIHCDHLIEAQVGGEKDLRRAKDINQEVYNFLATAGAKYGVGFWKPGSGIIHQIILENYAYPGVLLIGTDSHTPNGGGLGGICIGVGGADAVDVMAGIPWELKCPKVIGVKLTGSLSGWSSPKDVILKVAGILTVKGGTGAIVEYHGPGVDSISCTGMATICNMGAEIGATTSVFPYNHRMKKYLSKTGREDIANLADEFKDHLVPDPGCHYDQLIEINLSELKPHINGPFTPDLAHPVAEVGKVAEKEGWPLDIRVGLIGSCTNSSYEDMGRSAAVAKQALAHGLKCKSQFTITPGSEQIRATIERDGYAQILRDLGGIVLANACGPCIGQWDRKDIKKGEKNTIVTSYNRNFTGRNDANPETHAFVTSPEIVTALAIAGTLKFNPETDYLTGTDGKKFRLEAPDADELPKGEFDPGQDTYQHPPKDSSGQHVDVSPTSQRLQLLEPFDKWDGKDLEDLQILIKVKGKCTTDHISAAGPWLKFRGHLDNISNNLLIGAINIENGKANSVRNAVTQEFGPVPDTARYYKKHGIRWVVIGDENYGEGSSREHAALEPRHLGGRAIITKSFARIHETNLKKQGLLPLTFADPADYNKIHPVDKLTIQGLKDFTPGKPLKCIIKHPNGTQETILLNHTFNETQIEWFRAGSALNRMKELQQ",
  "assay": "co-IP; IP of endogenous mitochondrial aconitase from HeLa mitochondrial extracts with an anti-aconitase antibody; mitochondria treated with 100 µM hydrogen peroxide and 2 mM citrate; western blot for frataxin",
  "note": "These are yes or no findings as the source states them, for the method shown. Binding seen in cells or lysates may run through a third protein.",
  "data": [
    {"substance": "endogenous frataxin (from UniProt Q16595 42-210)", "values": [
      {"measurement": "binding", "value": "no binding"}
    ]}
  ]
}
